In publication PMC5412445, “ZeGlobalTox: An Innovative Approach to Address Organ Drug Toxicity Using Zebrafish” (International Journal of Molecular Sciences, 2017):

Assays:
zebrafish larvae heart = experiment: ZeGlobalTox cardiotoxicity evaluation (heart video, ZeCardio software); type: in vivo, zebrafish (Danio rerio); conditions: 100 hpf, 4 h after drug incubation at NOEC (haloperidol 10 µM)
Protocol: Four cardiac parameters were evaluated to assess whether a compound was cardiotoxic: heart rate (beats per minute, BPM), QTc prolongation, ejection fraction (EJF), and cardiac arrest. […] 1% DMSO was used as the negative control.
Cardiotoxicity evaluation was performed from 96 hpf, when the zebrafish heartbeat is already stabilised, so the analysis might not be altered by unstable beating. Zebrafish hearts were video-recorded at 4 h after drug incubation (100 hpf) and analysed using the ZeCardio® β software (Figure 3A).
After 4 h of drug incubation (100 hpf), zebrafish larvae were anesthetized by immersion in […] tricaine methanesulfonate (A4050, Sigma-Aldrich, Saint Louis, MO, USA)/E3 solution. […] Embryos were positioned in an agarose based mold to allow their appropriate orientation under the fluorescence stereo microscope (Olympus MVX10). Individual fluorescent hearts were recorded during 60 s each (Figure 6A). Videos were acquired with a high-speed recording camera (Hamamatsu C11440 ORCA-flash 2.8) and analysed with the ZeCardio® β software to extract different cardiac parameters—heart rate, cardiac arrest, QTc prolongation, and Ejection Fraction (EJF) (Figure 6B). […]
Heart beat frequency for each chamber is detected and frequencies are presented in the GUI as a mean. […] In the same fashion, chamber specific cardiac arrest is measured as the longest beating pause (Figure 6H). […]

zebrafish larvae liver = experiment: ZeGlobalTox hepatotoxicity: Oil Red O staining (steatosis and yolk lipid accumulation); conditions: 132 hpf, 36 h drug incubation at NOEC (paracetamol 2600 µM), DMSO 22.22%
humans = conditions: known toxicity in humans, ref TOXNET (HSDB), Side effects (EMBL), drugs.com, cited from earlier work

In the case of O=C(O)c1cn(C2CC2)c2cc(N3CCNCC3)c(F)cc2c1=O [Ciprofloxacin, ciprofloxacin], the “QTc interval compared to DMSO-only” value (zebrafish larvae heart) is listed as “shorter QTc interval”, the “Percentage of larvae presenting yolk lipid retention” value (zebrafish larvae liver) is listed as 65% and the “Neurotoxicity (toxicity in humans)” value (humans; [22],[30],[31],[34],[35]) is listed as “Toxic ^1,2,3”. For the same compound, the “Cardiotoxicity (toxicity in humans)” value (humans; ema.europa, [19],[20],[21]) was “Toxic ^1,2,3” and the “Hepatotoxicity (toxicity in humans)” value (humans; ema.europa, [24],[26],[27],[32],[33]) was “Toxic ^1,2,3”.
